From US20210171640A1
Substitutions are numbered along the chain they refer to. Results are given in words; binding and its absence hold for the method and conditions named. Some entries that bind do so weakly or less than the wild type. Blank lines part the entries; values can stand above or below the binder they belong to.

Legend:
[1] = biological target: cynomolgus VISTA expressed on K562 cells (cynomolgus); test: FACS
[2] = biological target: T1, human VISTA expressed on cells (human) (UniProt Q9H7M9); test: FACS
T1 sequence: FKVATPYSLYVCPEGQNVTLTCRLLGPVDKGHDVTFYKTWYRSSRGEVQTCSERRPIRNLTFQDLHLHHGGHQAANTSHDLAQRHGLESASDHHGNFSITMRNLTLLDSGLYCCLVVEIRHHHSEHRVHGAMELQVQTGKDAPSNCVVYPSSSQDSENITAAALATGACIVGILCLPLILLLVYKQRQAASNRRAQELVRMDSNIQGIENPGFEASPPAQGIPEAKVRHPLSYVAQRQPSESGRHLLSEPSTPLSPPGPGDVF

[3] = biological target: cynomolgus VISTA extracellular domain (cynomolgus); test: ELISA
[4] = biological target: T1, human VISTA expressed on cells (human); test: flow cytometry on K562-G8 cells expressing human VISTA, antibody at 5 µg/ml, goat anti-human IgG1-PE

binding [1]: binds
binding [2]: binds
binding [3]: binds
binding [4]: binds
B1: VSTB50 (antibody, human IgG1, kappa, V domains shown)
VH: QVQLVQSGSELKKPGASVKVSCKASGYTFTNYGLNWVRQAPGQGLEWMGWINPYTGEPTYADDFKGRFVFSLDTSVSTAYLQICSLKAEDTAVYYCAREGYGNYIFPYWGQGTLVTVSS
VL: DIVMTQTPLSLSVTPGQPASISCRASESVDTYANSLMHWYLQKPGQPPQLLIYRASNLESGVPDRFSGSGSGTDFTLKISRVEAEDVGVYYCQQTNEDPRTFGQGTKLEIKR

binding [1]: binds
binding [2]: binds
binding [3]: binds
binding [4]: binds
B2: VSTB60 (antibody, human IgG1, kappa, V domains shown)
VH: B1 VH with L34M, N35T, P53T, P58S, E99D, G100Y, N103I, I105V, F106S, P107A
VL: B1 VL with T31N, L36F, P47S, T95S, N96H, R100Y

binding [1]: binds
binding [2]: binds
binding [3]: binds
binding [4]: binds
B3: VSTB53 (antibody, human IgG1, kappa, V domains shown)
VH: QVQLVQSGAEVKKPGASVKVSCKASGYTFTHYTIHWVRQAPGQGLEWMGYIIPSSGYSEYNQKFKDRVTMTRDTSTSTVYMELSSLRSEDTAVYYCARGAYDDYYDYYAMDYWGQGTLVTVSS
VL: DIVMTQSPLSLPVTPGEPASISCRSSQTIVHSNGNTYLEWYLQKPGQSPQLLIYKVSNRFSGVPDRFSGSGSGTDFTLKISRVEAEDVGVYYCFQASHVPWTFGQGTKLEIKR

binding [1]: binds
binding [2]: binds
binding [3]: binds
binding [4]: binds
B4: VSTB95 (antibody, human IgG1, kappa, V domains shown)
VH: EVQLVESGGGLVQPGGSLRLSCAASGFTFRNYGMSWVRQAPGKGLEWVASIISGGSYTYYPDSVKGRFTISRDNAKNSLYLQMNSLRAEDTAVYYCARIYDHDGDYYAMDYWGQGTTVTVSS
VL: B3 VL with T28S, A96G
